# Results from one PubChem assay

The results are deposited in PubChem (AID912; NCATS, 2007).

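A cell-based FRET test of anthrax lethal toxin entry, tracked through the 460 nm emission signal; the cell line is not named here.
Each compound was tested as a concentration series from about 0.0005 to 40 µM.
The number is the fitted AC50 of the 460 nm signal alone; lower values mean a more potent effect. A falling signal goes with compounds filed as inhibitors or cytotoxic, a rising one with activators or fluorescent compounds (inferred from the filed classes).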

Values are in µM.
Common to all entries: measured here: 460 nm channel.
Part of the compounds only, not a random draw; the main read-out is not listed here.
A potency from a partial, single-point or poor curve is only a rough figure.
The first word of each remark tells which way the curve ran; it can be opposite to the aim of the assay.

| # | SMILES | AC50 (µM) | remark |
|---|---|---|---|
| 1 | `COc1ccc(Oc2ncc3nc(-c4ccc(F)cc4)c(=O)n(Cc4cccs4)c3n2)cc1` | 1.259 | falling, full curve |
| 2 | `Cc1ccc(S(=O)(=O)NCC(=O)N(CC(=O)NCc2ccccc2)CC2CCCO2)cc1` (stereo not given) | 0.00631 | falling, full curve, poor fit |
| 3 | `CCOC(=O)C1=C(C)NC(C)=C(C(=O)OC)[C@@H]1c1cccc([N+](=O)[O-])c1` | 2.512 | rising, single point |
| 4 | `O=[N+]([O-])c1ccc(Cl)c(Cl)c1` | 12.59 | rising, single point |
| 5 | `O=c1c2ccccc2n(Cc2ccc(F)cc2)c(=O)n1C1CCCC1` | 3.162 | falling, partial curve |
| 6 | `COc1ccc(O)c(C(=O)CC(=O)c2ccccc2)c1` | 31.62 | falling, single point |
| 7 | `c1ncc(-c2ccoc2)c(NC2CC2)n1` | 5.012 | rising, single point |
| 8 | `FC(F)(F)c1cc(-c2ccco2)nc(NCc2ccco2)n1` | 10 | falling, partial curve |
| 9 | `O=C(Cn1cnc2ccccc2c1=O)NC1CCCc2ccccc21` (stereo not given) | 5.012 | falling, partial curve |
| 10 | `COc1cccc(Cn2c(=S)[nH]c3ccc(N4CCOCC4)cc3c2=O)c1` | 15.85 | rising, partial curve |
| 11 | `COc1ncc2nc(-c3ccccc3)c(=O)n(CCc3ccccc3)c2n1` | 10 | rising, partial curve |
| 12 | `COc1ccc(-c2noc(CCC(=O)N(C)c3cccc(C)c3)n2)cc1` | 5.012 | rising, single point |
| 13 | `COc1ccccc1C(=O)N1CCc2ccccc21` | 0.02512 | falling, full curve, poor fit |
| 14 | `COc1ccccc1NC(=O)Nc1ccc2c(c1)OCCO2` | 5.012 | falling, partial curve |
| 15 | `O=C(Nc1nnc(C2CCCO2)s1)c1cccs1` (stereo not given) | 5.012 | falling, single point |
| 16 | `O=C(CN1C(=O)C2(OCCO2)c2ccccc21)c1ccc(F)cc1` | 0.1 | rising, full curve, poor fit |
| 17 | `CCOC(=O)Cn1c(=O)oc2cc(S(=O)(=O)Nc3ccc(F)cc3)ccc21` | 31.62 | falling, single point |
| 18 | `COc1cc2c(cc1O)C[C@H]1c3c(cc(O)c(OC)c3-2)CCN1C` | 15.85 | falling, single point |
| 19 | `Cn1c(=O)c2c(SCC(=O)N3CCOCC3)nc(CC(C)(C)C)nc2n(C)c1=O` | 5.012 | falling, partial curve, poor fit |
| 20 | `CCCCOc1ccc(-c2c(C#N)c(N)nc(SCC(N)=O)c2C#N)cc1` | 3.981 | falling, partial curve |
| 21 | `COc1ccc(C)cc1S(=O)(=O)N(CC(=O)O)c1ccccc1` | 5.012 | rising, single point |
| 22 | `COc1cc(Cl)c(C)cc1NC(=O)CSc1nnc(-c2cccnc2)n1Cc1ccco1` | 0.7943 | falling, partial curve |
| 23 | `c1ccc(C[C@@H](Nc2cccnc2)c2ccccc2)cc1` | 0.7943 | falling, single point |
| 24 | `COc1ccc(NC(=O)C2CCCN(S(=O)(=O)c3cccc4cccnc34)C2)c(OC)c1` (stereo not given) | 2.512 | falling, partial curve |
| 25 | `CCNc1ncc2nc(-c3ccc(OC)cc3)c(=O)n(CCc3ccccc3)c2n1` | 0.3981 | rising, full curve |
| 26 | `Oc1c(Cl)cc(Cl)c(Cl)c1Cc1c(O)c(Cl)cc(Cl)c1Cl` | 0.3981 | falling, full curve |
| 27 | `Cc1cc(-c2cc(C)c(O)c(C(C)(C)C)c2)cc(C(C)(C)C)c1O` | 1.585 | falling, partial curve |
| 28 | `COc1ccc(-c2nc3cnc(N4CCN(C)CC4)nc3n(C)c2=O)cc1` | 10 | rising, partial curve |
| 29 | `COc1cccc(NC(=O)c2oc3ccccc3c2NC(=O)C(C)(C)C)c1` | 6.31 | falling, partial curve |
| 30 | `CCCCc1[nH]nc2c1C1(C(=O)N(CC)c3ccccc31)C(C#N)=C(N)O2` (stereo not given) | 31.62 | rising, single point |
| 31 | `O=C(Nc1cccc(C(F)(F)F)c1)c1ccco1` | 0.01995 | falling, full curve |
| 32 | `N#Cc1cccc(NC(=O)N2CCC(c3nc4c(nnn4Cc4cccc(Cl)c4)c(=O)[nH]3)CC2)c1` | 1.585 | rising, partial curve |
| 33 | `O=C1c2ccccc2C(=O)N1OCc1ccccc1` | 25.12 | rising, single point |
| 34 | `CCN(CC)CCOC(=O)c1cccc(Br)c1` | 15.85 | falling, single point |
| 35 | `CCCN(CCC)CCNC(=O)c1cc2c(=O)n(C)c3ccccc3c2n1C` | 5.012 | falling, partial curve |
| 36 | `CN1CCc2c(sc3c2c(NCc2ccco2)nc2nnnn23)C1` | 0.02512 | falling, full curve, poor fit |
| 37 | `O=C1C(Cl)=C(Cl)C(=O)C(Cl)=C1Cl` | 2.512 | falling, full curve |
| 38 | `Nc1c(C(=O)NC2CC2)c2nc3ccccc3nc2n1-c1ccc2c(c1)OCO2` | 10 | rising, single point |
| 39 | `c1ccoc1` | 1 | falling, full curve, poor fit |
| 40 | `COCCOC(=O)c1c(C)oc2ccc(OC(=O)c3cccs3)cc12` | 31.62 | falling, single point |
| 41 | `COc1cc2c(cc1O)CCC1C2CC[C@@]2(C)C1CC[C@@H]2O` (stereo not given in full) | 31.62 | falling, single point |
| 42 | `Cn1c(C(=O)Nc2ccc3c(c2)OCO3)cc2c(=O)n(C)c3ccccc3c21` | 2.512 | falling, full curve |
| 43 | `COc1ccc(S(=O)(=O)Nc2cccc(SC)c2)cc1OC` | 12.59 | falling, partial curve |

Some entries from above, unchanged:

| SMILES | AC50 (µM) | remark |
|---|---|---|
| `COc1ncc2nc(-c3ccccc3)c(=O)n(CCc3ccccc3)c2n1` | 10 | rising, partial curve |
| `O=c1c2ccccc2n(Cc2ccc(F)cc2)c(=O)n1C1CCCC1` | 3.162 | falling, partial curve |